Test results: PubChem BioAssay AID652054 (National Center for Advancing Translational Sciences (NCATS), 2013)
In all, about 360,000 compounds went through this assay and about 9,100 (2.5%) were called active. Rule as the data show it: active = max response below about -50%; inconclusive = no clear call, values can overlap the other calls; inactive = above that. Inconclusive results, whose numbers are uncertain, are shown.

Protein sequences, listed by entry. Tags and fused reporters are not part of them.
UniProt P35462, whole entry, looked up: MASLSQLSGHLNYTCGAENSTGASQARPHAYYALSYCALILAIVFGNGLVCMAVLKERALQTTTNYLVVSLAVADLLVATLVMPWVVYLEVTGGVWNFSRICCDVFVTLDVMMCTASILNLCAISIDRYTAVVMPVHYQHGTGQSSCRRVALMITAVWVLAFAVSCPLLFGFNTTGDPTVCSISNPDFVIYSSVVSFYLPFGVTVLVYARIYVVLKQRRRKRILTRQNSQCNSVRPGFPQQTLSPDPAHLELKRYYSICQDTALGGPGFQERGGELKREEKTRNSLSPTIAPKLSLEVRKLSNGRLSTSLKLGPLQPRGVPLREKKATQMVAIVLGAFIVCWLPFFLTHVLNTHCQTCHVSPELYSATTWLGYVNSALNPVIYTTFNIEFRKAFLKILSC

Each compound was assayed against D(3) dopamine receptor (Homo sapiens) (UniProt P35462) (assay: qHTS of D3 Dopamine Receptor Antagonist: qHTS). Details: D3R cells, DiscoveRx beta-arrestin luminescence, antagonist mode; stronger effect = lower value.
From the text: D3 DARs represent a very important target for the treatment of several neuropsychiatric disorders. Indeed, one of the most promising therapeutic applications for the D3 DAR is in the area of addiction and related disorders. […] These findings have been observed with a number of addictive substances including cocaine, amphetamine, nicotine, and alcohol. […] Antagonism of the D3 DAR may also be therapeutic in the treatment of schizophrenia or psychosis. […] Since the D3 DAR is expressed in areas of the CNS associated with the control of mood and emotion, it has been hypothesized that selective antagonism of the D3 DAR may be effective in treating psychosis without inducing the motor side effects typically seen with D2 DAR antagonists.
This part of the project aims to discover novel antagonist.
NIH Chemical Genomics Center [NCGC]
NIH Molecular Libraries Probe Centers Network [MLPCN]
Assay Submitter (PI): David Sibley, NINDS
Freshly passaged cells are plated in 1536 well white, solid bottom plates at a density of 1500 cells/well in 3microl of complete media. After an overnight incubation at 37 degrees C in 5% CO2, cells are loaded with 23nl of test compound from the compound library (as well as dopamine controls) using a 1536 pintool and incubated at 37 degrees C for 90 minutes. […] Following incubation, luminescence is measured on a ViewLux CCD-based luminometer reader using a 20 sec exposure time.
% is scaled to controls: 0 for no effect and ±100 for the full control effect.

Row | SMILES | max response, negative = inhibition
1 | CCCCNS(=O)(=O)CCNCc1ccccc1OC | inconclusive: -44.5%
